Measured values as given in patent US20210198366A1.
No constants are given. Whether binding was seen depends on the method and setting. Some results given as binding are weak or reduced against the parent protein; the word gives no strength.

Molecular target: T1, human B7-H7 (soluble analyte in SPR) (human) (UniProt Q9UM44)
T1 sequence: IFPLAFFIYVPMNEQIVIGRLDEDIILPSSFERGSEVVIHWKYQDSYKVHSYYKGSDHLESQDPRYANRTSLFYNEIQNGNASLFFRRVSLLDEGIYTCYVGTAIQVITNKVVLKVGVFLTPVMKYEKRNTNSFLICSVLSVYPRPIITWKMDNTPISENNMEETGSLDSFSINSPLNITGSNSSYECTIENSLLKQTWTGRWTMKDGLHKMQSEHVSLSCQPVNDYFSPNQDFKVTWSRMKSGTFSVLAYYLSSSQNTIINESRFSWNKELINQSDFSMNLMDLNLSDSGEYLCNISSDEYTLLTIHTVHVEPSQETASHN
Assay: SPR (Biacore)

B1: humanized anti-B7-H7 antibody Hz2D7 (antibody, human IgG1, kappa, V domains shown)
VH: QVQLVQSGAEVKKPGASVKVSCKTSGYTFTEYTMHWVRQAPGQGLEWMGGINPNNYGAPYNQKFKGRVTMTVDTSISTAYMELSRLRSDDTAVYYCASGGYYFDYWGQGTLVTVSS
VL: DIQMTQSPSSLSASVGDRVTITCKASQDVGTAVAWYQQKPGKAPKLLIYWAFTRHTGVPSRFSGSGSGTDYTLTISSLQPEDFATYYCQQHYDTPFTFGQGTKVEIKR
In the case of B1, the binding is reported as “binds”.
